Measurements taken from the supplement of paper PMC10849652.
The list shows a part of the results. Residues, ends and D or L forms follow the SMILES beside them. *: point of attachment. Cbz = O=C(OCc1ccccc1)*

Chains of the proteins cited; added tags and fusions are not shown. Lines headed by an entry give the natural chain unless they say otherwise; changes in a name come on top.
UniProt P11802: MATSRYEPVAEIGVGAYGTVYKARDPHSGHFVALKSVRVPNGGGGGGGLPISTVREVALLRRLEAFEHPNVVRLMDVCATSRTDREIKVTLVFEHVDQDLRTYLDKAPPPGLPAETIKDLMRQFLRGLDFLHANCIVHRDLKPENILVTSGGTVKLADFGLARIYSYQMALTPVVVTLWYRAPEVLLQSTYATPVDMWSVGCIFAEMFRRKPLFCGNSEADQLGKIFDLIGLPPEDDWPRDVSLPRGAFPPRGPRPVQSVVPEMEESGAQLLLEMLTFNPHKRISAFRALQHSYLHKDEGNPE
UniProt Q9UPN4: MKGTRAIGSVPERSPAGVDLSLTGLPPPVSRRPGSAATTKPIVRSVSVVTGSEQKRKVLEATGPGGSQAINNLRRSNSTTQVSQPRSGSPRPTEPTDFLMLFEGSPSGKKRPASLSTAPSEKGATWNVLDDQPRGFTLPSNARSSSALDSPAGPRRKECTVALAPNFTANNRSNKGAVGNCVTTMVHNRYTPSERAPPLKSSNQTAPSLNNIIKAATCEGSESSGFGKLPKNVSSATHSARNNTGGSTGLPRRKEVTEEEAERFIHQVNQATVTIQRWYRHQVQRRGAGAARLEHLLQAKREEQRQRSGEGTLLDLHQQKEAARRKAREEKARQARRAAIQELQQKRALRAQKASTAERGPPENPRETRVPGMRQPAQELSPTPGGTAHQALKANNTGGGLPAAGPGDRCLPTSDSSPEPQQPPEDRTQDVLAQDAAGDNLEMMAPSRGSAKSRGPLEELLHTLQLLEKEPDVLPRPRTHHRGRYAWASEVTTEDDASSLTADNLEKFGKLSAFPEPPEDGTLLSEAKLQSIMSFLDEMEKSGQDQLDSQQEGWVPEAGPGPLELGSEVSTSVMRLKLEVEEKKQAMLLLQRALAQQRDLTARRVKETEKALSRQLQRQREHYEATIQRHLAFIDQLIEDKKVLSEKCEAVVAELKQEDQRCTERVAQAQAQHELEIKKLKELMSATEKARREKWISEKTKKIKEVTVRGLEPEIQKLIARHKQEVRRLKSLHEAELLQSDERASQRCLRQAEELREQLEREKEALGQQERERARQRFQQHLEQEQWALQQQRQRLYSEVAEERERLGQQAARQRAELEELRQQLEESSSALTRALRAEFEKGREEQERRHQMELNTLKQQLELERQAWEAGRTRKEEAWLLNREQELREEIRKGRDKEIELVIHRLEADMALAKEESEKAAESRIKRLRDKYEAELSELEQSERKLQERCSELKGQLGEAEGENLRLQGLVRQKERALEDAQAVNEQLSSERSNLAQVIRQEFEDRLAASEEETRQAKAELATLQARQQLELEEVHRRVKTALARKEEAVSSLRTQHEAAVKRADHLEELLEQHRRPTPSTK
UniProt Q71F23: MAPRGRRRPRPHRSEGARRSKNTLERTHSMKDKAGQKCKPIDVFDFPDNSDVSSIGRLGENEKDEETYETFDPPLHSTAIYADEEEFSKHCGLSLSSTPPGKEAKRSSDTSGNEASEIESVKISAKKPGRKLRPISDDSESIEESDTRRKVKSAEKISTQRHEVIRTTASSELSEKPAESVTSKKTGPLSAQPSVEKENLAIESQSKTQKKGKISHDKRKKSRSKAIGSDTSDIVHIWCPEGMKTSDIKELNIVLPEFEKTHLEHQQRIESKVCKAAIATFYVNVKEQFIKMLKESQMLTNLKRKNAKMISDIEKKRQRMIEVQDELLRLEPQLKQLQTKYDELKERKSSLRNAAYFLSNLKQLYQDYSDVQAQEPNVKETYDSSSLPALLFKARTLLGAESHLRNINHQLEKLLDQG
UniProt Q9HC77: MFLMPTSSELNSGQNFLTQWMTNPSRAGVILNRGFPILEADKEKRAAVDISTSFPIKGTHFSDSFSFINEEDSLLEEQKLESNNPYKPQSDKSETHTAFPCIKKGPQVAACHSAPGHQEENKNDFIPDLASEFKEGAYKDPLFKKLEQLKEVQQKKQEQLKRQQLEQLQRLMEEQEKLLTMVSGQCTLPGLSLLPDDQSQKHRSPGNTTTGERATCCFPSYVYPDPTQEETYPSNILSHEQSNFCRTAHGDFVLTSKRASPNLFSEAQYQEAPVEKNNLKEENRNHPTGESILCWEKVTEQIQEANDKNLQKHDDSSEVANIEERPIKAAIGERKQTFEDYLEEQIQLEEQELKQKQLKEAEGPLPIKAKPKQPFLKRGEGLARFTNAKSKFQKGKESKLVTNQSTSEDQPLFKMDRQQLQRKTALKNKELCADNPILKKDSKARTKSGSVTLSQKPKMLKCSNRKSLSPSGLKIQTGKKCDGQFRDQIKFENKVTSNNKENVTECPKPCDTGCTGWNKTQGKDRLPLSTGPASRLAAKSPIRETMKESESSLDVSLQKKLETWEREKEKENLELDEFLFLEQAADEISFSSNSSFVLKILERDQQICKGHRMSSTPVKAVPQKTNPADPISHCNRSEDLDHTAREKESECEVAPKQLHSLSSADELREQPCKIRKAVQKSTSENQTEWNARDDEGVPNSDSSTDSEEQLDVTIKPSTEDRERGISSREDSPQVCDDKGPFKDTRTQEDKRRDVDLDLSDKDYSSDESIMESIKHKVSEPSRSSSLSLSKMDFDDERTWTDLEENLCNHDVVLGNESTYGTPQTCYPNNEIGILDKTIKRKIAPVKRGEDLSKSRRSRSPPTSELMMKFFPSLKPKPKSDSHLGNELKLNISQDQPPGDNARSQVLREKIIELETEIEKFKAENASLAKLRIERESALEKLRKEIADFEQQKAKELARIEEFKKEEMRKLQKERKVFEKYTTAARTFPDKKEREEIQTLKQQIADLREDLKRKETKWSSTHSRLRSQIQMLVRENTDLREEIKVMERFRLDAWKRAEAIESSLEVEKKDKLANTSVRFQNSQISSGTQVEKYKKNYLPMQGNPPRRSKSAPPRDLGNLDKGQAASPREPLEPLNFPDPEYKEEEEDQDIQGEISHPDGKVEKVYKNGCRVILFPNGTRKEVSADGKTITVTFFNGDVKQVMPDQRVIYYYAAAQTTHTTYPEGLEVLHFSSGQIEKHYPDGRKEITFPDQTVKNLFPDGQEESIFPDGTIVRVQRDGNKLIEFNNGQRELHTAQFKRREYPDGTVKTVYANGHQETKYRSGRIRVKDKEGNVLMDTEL
UniProt O75956: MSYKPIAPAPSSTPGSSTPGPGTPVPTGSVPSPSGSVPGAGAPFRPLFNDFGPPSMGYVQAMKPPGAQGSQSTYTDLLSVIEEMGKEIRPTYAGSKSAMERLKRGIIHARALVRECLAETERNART
UniProt P42773: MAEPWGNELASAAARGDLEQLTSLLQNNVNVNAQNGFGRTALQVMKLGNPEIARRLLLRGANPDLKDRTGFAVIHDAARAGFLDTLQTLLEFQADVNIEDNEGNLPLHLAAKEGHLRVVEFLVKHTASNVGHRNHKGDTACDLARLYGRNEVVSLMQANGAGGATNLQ
UniProt Q711Q0: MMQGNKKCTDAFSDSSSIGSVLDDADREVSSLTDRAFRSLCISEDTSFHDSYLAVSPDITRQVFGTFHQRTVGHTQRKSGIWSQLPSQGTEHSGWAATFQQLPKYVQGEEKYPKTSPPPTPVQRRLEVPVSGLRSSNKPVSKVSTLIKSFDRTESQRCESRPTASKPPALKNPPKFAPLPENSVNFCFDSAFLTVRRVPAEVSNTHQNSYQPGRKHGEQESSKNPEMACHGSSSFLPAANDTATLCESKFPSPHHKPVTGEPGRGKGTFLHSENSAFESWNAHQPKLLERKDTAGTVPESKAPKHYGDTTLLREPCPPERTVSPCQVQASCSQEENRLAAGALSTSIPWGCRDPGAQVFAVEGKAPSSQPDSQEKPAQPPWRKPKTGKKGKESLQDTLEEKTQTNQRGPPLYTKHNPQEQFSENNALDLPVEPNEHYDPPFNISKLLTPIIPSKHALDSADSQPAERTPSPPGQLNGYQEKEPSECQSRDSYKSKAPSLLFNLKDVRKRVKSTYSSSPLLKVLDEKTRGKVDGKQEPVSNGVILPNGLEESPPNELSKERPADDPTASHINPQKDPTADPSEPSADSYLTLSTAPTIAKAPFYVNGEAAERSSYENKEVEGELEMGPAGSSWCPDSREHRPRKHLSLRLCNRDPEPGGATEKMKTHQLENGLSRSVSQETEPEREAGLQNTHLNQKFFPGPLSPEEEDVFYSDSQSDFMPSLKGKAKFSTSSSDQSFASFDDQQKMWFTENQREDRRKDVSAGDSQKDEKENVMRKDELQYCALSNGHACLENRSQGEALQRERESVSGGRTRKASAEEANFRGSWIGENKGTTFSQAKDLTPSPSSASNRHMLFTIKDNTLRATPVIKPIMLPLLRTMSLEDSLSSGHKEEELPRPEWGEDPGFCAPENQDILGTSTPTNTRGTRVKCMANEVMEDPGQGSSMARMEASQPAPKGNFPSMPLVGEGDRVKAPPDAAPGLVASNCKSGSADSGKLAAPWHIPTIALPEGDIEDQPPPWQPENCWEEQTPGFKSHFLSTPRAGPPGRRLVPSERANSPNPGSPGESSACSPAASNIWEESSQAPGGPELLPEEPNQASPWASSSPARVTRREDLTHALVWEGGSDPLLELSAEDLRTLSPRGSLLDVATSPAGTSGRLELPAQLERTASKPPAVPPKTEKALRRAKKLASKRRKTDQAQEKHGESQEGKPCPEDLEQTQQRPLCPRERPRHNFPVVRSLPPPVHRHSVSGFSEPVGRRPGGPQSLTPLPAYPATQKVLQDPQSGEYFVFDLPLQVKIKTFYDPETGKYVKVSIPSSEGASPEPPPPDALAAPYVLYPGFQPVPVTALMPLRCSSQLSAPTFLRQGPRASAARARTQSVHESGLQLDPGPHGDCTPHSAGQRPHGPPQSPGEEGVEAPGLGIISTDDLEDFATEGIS

Tests used:
Assay in all cases: log2 fold change, soluble protein after heating vs DMSO (PISA); higher = thermal stabilisation; K562 cells, 10 uM, 30 min; active = over 0.2 and 3.5 SD of the protein, either way, in both replicates (recomputed)
erlotinib = compound: C#Cc1cccc(Nc2ncnc3cc(OCCOC)c(OCCOC)cc23)c1 [erlotinib]
Summary of the method: (§1)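 K562 cells at 2×10^6 cells/mL were treated for 30 min with 10 μM compound, and aliquots were heated for 3 min over 48°C-58°C before pooling. Extraction used PBS with 0.5% NP-40 at 4°C, and soluble protein was the supernatant after 21,000xg for 90 min, measured by TMTpro 16plex LC-MS/MS with channel sums equalised. Thermal stability values, relative to control samples and from duplicates, are log2 fold changes.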

[1] = compound: C/C(=N\NC(=O)C1=CC(=CC=C1)S(=O)(=O)N2CCOCC2)/C3=C(C=CC(=C3)Cl)O
Summary of the method: as §1

[2] = compound: C1=CC(=C(C=C1Cl)C2=NC3=NC=CN=C3C(=N2)NC4=CC=NC=C4)F
Summary of the method: as §1

[3] = compound: C1=CC(=CC=C1C2=NC3=C(N2)C=C(C=C3)C(=O)N)OC4=CC=C(C=C4)Cl
Summary of the method: as §1

[4] = compound: C1=CC2=C(C=CC(=C2)/C=C\3/C(=O)NC(=NCC4=CC=CS4)S3)N=C1
Summary of the method: as §1

[5] = compound: C1=CC2=NC=CN=C2C=C1/C=C/3\C(=O)NC(=O)S3
Summary of the method: as §1

[6] = compound: C1=CC=C(C=C1)C2=NC(=C(N2)C3=CC=NC=C3)C4=CC(=C(C=C4)Cl)O
Summary of the method: as §1

[7] = compound: C1=CC=C2C(=C1)C3=NNC4=CC=CC(=C43)C2=O
Summary of the method: as §1

IRAK-1-4 Inhibitor I = compound: C1COCCN1CCN2C3=CC=CC=C3N=C2NC(=O)C4=CC(=CC=C4)[N+](=O)[O-] [IRAK-1-4 Inhibitor I]
Summary of the method: as §1

ibrutinib = compound: C=CC(=O)N1CCC[C@@H](n2nc(-c3ccc(Oc4ccccc4)cc3)c3c(N)ncnc32)C1 [ibrutinib]
Summary of the method: as §1

[8] = compound: CC(=O)c1cnc2ccc(-c3cc(Cl)c(O)c(Cl)c3)nc2c1N[C@H]1CC[C@H](CN(C)C)CC1
Summary of the method: as §1

ralimetinib = compound: CC(C)(C)Cn1c(N)nc2ccc(-c3[nH]c(C(C)(C)C)nc3-c3ccc(F)cc3)nc21 [ralimetinib]
Summary of the method: as §1

[9] = compound: CC(C)(O)CC(=O)NCCn1ccc2ncnc(Nc3ccc(Oc4cccc(C(F)(F)F)c4)c(Cl)c3)c21
Summary of the method: as §1

[10] = compound: CC(C)C1=C2N=C(C=C(N2N=C1)NCC3=CC=CC=C3)NCCCCCCN
Summary of the method: as §1

[11] = compound: CC(C)C[C@@H](C=O)NC(=O)[C@H](CC(C)C)NC(=O)[C@H](CC(C)C)NC(=O)OCc1ccccc1
Summary of the method: as §1

pinometostat = compound: CC(C)N(C[C@H]1O[C@@H](n2cnc3c(N)ncnc32)[C@H](O)[C@@H]1O)[C@H]1C[C@@H](CCc2nc3cc(C(C)(C)C)ccc3[nH]2)C1 [pinometostat]
Summary of the method: as §1

[12] = compound: CC1=C(C(CC(=O)N1)C2=CC=C(C=C2)C(F)(F)F)C(=O)NC3=C(C=C4C(=C3)C=NN4)F
Summary of the method: as §1

[13] = compound: C1CCN(C1)C(=O)NC2=CC=CC(=C2)NC3=NC=C(C(=N3)NCCC4=CN=CN4)Br
Summary of the method: as §1

[14] = compound: C1CN(CCC1(CC2=CC=C(C=C2)Cl)N)C3=NC=NC4=C3C=CN4
Summary of the method: as §1

[15] = compound: CC1=C(C2=C(C=C1)C(=O)C3=CC=CC=C3N2CCCN)C
Summary of the method: as §1

Measured: log2 fold change

CDK4 (UniProt P11802)
inactive: erlotinib 0.075 | [1] -0.244 | [2] -0.008 | [3] -0.086 | [4] 0.329 | [5] 0.11 | [6] -0.067 | [7] 0.032 | IRAK-1-4 Inhibitor I 0.001 | ibrutinib -0.004 | ralimetinib 0.054 | [9] -0.098 | [10] -0.333 | [11] 0.105 | pinometostat 0.081
active: [8] 0.685

CENPC (UniProt Q03188)
inactive: erlotinib -0.3 | [1] -0.177 | [2] -0.062 | [3] 0.001 | [4] 0.025 | [7] -0.107 | IRAK-1-4 Inhibitor I 0.103 | [8] -0.129 | [9] 0.1 | [10] 0.099 | pinometostat 0.315 | [12] 0.095

CEP131 (UniProt Q9UPN4)
inactive: erlotinib 0.005 | [1] -0.08 | [2] -0.235 | [3] 0.045 | [4] 0.029 | [7] -0.041 | [13] -0.004 | [14] 0.023 | IRAK-1-4 Inhibitor I -0.101 | [8] -0.004 | [9] 0.078 | [10] 0.135 | pinometostat 0.128 | [15] 0.03

CDK2 (UniProt P24941)
inactive: erlotinib -0.006 | [1] -0.016 | [2] 0.023 | [3] -0.018 | [5] 0.004 | [6] -0.01 | [7] -0.032 | [13] -0.028 | [14] 0.034 | IRAK-1-4 Inhibitor I 0.023 | ibrutinib 0.018 | [8] 0.133 | ralimetinib -0.053 | [9] -0.018 | [10] -0.01 | [11] 0.014 | pinometostat -0.003 | [12] -0.003 | [15] 0.028

CENPU (UniProt Q71F23)
inactive: erlotinib -0.142 | [1] -0.502 | [2] -0.334 | [3] -0.047 | [4] -0.202 | [7] -0.381 | [13] 0.01 | [14] 0 | IRAK-1-4 Inhibitor I -0.121 | [8] 0.088 | [9] 0.01 | [10] 0.124 | pinometostat 0.184 | [15] -0.191

CHD5 (UniProt Q8TDI0)
inactive: erlotinib 0.124 | [1] 0.161 | [2] 0.123 | [3] -0.144 | [4] 0.062 | [5] -0.049 | [6] -0.024 | [7] -0.108 | [13] -0.112 | [14] -0.061 | ibrutinib -0.058 | [8] -0.249 | ralimetinib 0.11 | [9] 0.021 | [10] -0.367 | [11] 0.09 | [12] -0.016 | [15] -0.022

CENPJ (UniProt Q9HC77)
inactive: erlotinib 0.113 | [1] 0.12 | [2] -0.099 | [3] 0.044 | [4] -0.101 | [6] 0.067 | [7] -0.15 | [13] -0.097 | [14] 0.06 | IRAK-1-4 Inhibitor I -0.058 | [8] -0.147 | ralimetinib 0.402 | [9] 0.004 | [10] -0.15 | [11] 0.339 | pinometostat 0.161 | [15] 0.058

CDK2AP2 (UniProt O75956)
inactive: erlotinib -0.142 | [1] -0.007 | [2] 0.037 | [3] 0.043 | [4] 0.063 | [5] 0.103 | [6] 0.007 | [7] 0 | IRAK-1-4 Inhibitor I -0.087 | ibrutinib 0.011 | [8] 0.094 | ralimetinib 0 | [9] -0.077 | [10] 0.258 | pinometostat -0.135
active: [11] -0.438

CDKN2C (UniProt P42773)
inactive: erlotinib 0.1 | [1] 0.08 | [3] 0.029 | [4] 0.187 | [5] 0.135 | [6] 0.097 | [7] 0.035 | [13] -0.06 | [14] -0.021 | IRAK-1-4 Inhibitor I -0.063 | ibrutinib -0.044 | [8] -0.141 | ralimetinib -0.152 | [10] 0.102 | [11] -0.048 | pinometostat -0.084 | [12] 0.043 | [15] 0.219

CEFIP (UniProt Q711Q0)
inactive: erlotinib 0.019 | [1] 0.038 | [2] -0.195 | [3] 0.015 | [4] 0.083 | [5] 0.13 | [7] -0.054 | ibrutinib -0.118 | [8] -0.294 | [9] -0.223 | [10] 0.038
